Source: PubChem BioAssay AID540276 (National Center for Advancing Translational Sciences (NCATS), 2011)
“And” between values parts separate entries of the source, which are not always exact repeats. Identical values can stand only once. Screen size: about 300,000 compounds; about 5,400 (1.8%) were called active. This list was built around the results that the source calls inconclusive (neither active nor inactive); the mix of calls is not that of the screen. Calls come from the whole dose curve; tested in HEK293 cells. Potencies of inconclusive entries are doubtful fits and often do not repeat.

Assay: qHTS for inhibitors of binding or entry into cells for Marburg Virus
Settings: Marburg virus pseudotyped entry inhibition, cell reporter; series mostly up to 37.8 µM
Potency is the fitted concentration of half-maximal effect.

Row | Compound | Potency
1 | CCCCCCCCSc1nnc(/N=C/N(C)C)s1 | inactive
2 | COc1ccc(-c2nc3ccccc3o2)cc1NC(=O)c1ccc(OCC(C)C)cc1 | inactive
3 | Cc1ccc(C2c3c(-c4ccccc4O)n[nH]c3C(=O)N2Cc2ccncc2)cc1 (stereo not given) | inconclusive: 2.91 µM [inhibitor, full curve, poor fit]
4 | COCCCNC(=S)N(Cc1ccccc1)Cc1ccccc1 | inconclusive: 7.08 µM [inhibitor, partial curve, poor fit]
5 | CC(C)(C)CC(C)(C)NC(=S)Nc1ccc2nc(-c3ccccn3)c(-c3ccccn3)nc2c1 | inconclusive: 32.6 µM [inhibitor, single point]
6 | CCN(CC)CCN1C(=O)C(O)=C(C(C)=O)C1c1ccccc1[N+](=O)[O-] (stereo not given) | inconclusive: 20 µM [activator, single point]
7 | CC(C)(C)OC(=O)N1CCCC(C(=O)Nc2cccc(C(=O)NCCCc3ccccc3)c2)C1 (stereo not given) | inconclusive: 35.3 µM [inhibitor, single point]
8 | COc1ccc(C2/C(=C(\O)c3ccc4c(c3)OCCO4)C(=O)C(=O)N2CCCN(C)C)cc1 (stereo not given) | inactive and inconclusive: 1.12 µM [inhibitor, partial curve, poor fit]
9 | CCOc1[nH]n(-c2ccc(Cl)cc2)c(=O)c1C=Nc1ccc(O)cc1 | inconclusive: 15.8 µM [inhibitor, single point]
10 | CC(=O)N1CCc2cc(S(=O)(=O)NCCC(=O)NCCc3ccc(C)cc3)ccc21 | inconclusive: 35.5 µM [inhibitor, single point]
11 | CCc1cccc(CC)c1NC(=O)CSc1nnc(CCC(=O)O)c(=O)[nH]1 | inactive
12 | CCc1ccc(-n2c(=O)c3ccc(C(=O)NCCc4ccccc4)cc3n(Cc3ccccc3C#N)c2=O)cc1 | inconclusive: 31.6 µM [activator, single point]
13 | CCC1CSC(Nc2ccc(C(=O)/C=C/c3cccc(C)c3)cc2)=N1 (stereo not given) | inconclusive: 32.6 µM [inhibitor, single point]
14 | COc1cccc(NC(=O)Nc2cnccn2)c1 | inactive
15 | O=C(COC(=O)c1cc(Cl)cc(Cl)c1)NCCN1C(=O)CSC1=O | inactive
16 | COc1cccc(-c2cc(C(=O)N3CCN(c4ncccn4)CC3)c3ccccc3n2)c1 | inconclusive: 12.6 µM [inhibitor, partial curve, poor fit]
17 | COc1ccccc1NC(=O)COC(=O)CC(C)(C)CC1=NS(=O)(=O)c2ccccc2N1 | inconclusive: 0.708 µM [inhibitor, full curve, poor fit]
18 | COc1cccc(C=Nc2ccc3c(c2)OCCO3)c1O | inactive
19 | CCN(CC(=O)Nc1c(F)cccc1F)C(=O)CSCC(=O)Nc1cc(C)on1 | inactive
20 | COc1ccc(Cl)cc1NC(=O)Cn1nnc(C(=O)NCc2cccs2)c1N | inconclusive: 0.631 µM [inhibitor, full curve, poor fit]
21 | C/C(=N\Nc1ccccc1[N+](=O)[O-])c1ccccc1O | inconclusive: 8.91 µM [activator, partial curve, poor fit]
22 | COc1ccc(/C=C2\CCC(C3CCCC3)C2=O)cc1 (stereo not given) | inconclusive: 6.31 µM [inhibitor, full curve, poor fit]
23 | CC(C)OC(=O)c1ccc(COC(=O)c2cnccn2)cc1 | inactive
24 | Cc1cccc(N(C(=O)c2cnc3n(c2=O)CCS3)C2CCCCC2)c1 | inconclusive: 0.0046 µM [inhibitor, full curve, poor fit]

Row | Compound | Potency
25 | O=C(Nc1ccc(N2CCCC2)cc1)c1ccc(Cl)cc1Cl | inactive
26 | Cn1c(SCc2nnc(-c3ccccc3)o2)nc2ccccc21 | inconclusive: 35.5 µM [activator, single point]
27 | CCOc1ccc2nc(NC(=O)c3ccccn3)sc2c1 | inconclusive: 2.24 µM [inhibitor, full curve, poor fit]
28 | Nc1nc(Nc2ccccc2F)nc(N2CCCC2)c1[N+](=O)[O-] | inconclusive: 12.6 µM [inhibitor, partial curve, poor fit]
29 | Cc1nc(N(C)Cc2ccccc2)c2nnn(Cc3ccccc3)c2n1 | inactive
30 | COC(=O)c1[nH]c2ccc(C)cc2c1NC(=O)C(C)N1CCN(C2CCCCC2)CC1 (stereo not given) | inconclusive: 6.31 µM [activator, single point]
31 | CC(=O)NC(c1ccc([N+](=O)[O-])cc1)c1c(O)ccc2ccccc12 (stereo not given) | inconclusive: 31.6 µM [inhibitor, single point]
32 | Cc1ccc(Cn2ccnc2SCC(=O)NC2CCCC2)cc1 | inactive
33 | COc1cc(S(=O)(=O)n2ccnc2C(C)C)ccc1Br | inconclusive: 2.51 µM [inhibitor, partial curve, poor fit]
34 | O=C(O)c1ccc(N=Nc2c(O)[nH]c3ccccc23)cc1 | active: 1.78 µM
35 | CCOc1ccc(CCNC(=O)CN2C(=O)COc3ccc(S(=O)(=O)N(CC)CC)cc32)cc1 | inconclusive: 2.51 µM [activator, partial curve, poor fit]
36 | COc1cc(OC)cc(C(=O)Nc2c(C)nn(-c3ccccc3)c2C)c1 | inconclusive: 3.55 µM [inhibitor, partial curve, poor fit]
37 | O=C(NCc1ccccc1)c1cnc2n(c1=O)CCS2 | inactive
38 | COCCNCC(=O)NC12CC3CC(CC(C3)C1)C2 | inactive
39 | COc1cccc(C2=NN(S(C)(=O)=O)C(c3cccs3)C2)c1 (stereo not given) | inactive
40 | OCC(O)/C=N/Nc1nc2ccccc2s1 (stereo not given) | inconclusive: 11.2 µM [activator, partial curve, poor fit]
41 | COc1ccc(CCNC(=O)CCOc2ccc(C(C)(C)C)cc2)cc1OC | inconclusive: 35.5 µM [inhibitor, single point]
42 | Cc1ccc(S(=O)(=O)NCC(=O)N2CCOCCOCCOCC2)cc1 | inactive
43 | COc1ccc(/C=N/NC(=O)c2ccccc2)cc1OS(=O)(=O)c1ccccc1 | inconclusive: 22.4 µM [inhibitor, single point]
44 | CCOc1nc(SCCOc2ccc(C)cc2)nc(N(C)C)n1 | inactive
45 | N#Cc1ccccc1S(=O)(=O)N1CCN(c2nc(-c3cccnc3)nc3ccccc23)CC1 | inconclusive: 15.8 µM [inhibitor, single point]
46 | CCNC(=O)c1ccc(NS(=O)(=O)c2ccc3[nH]c(=O)[nH]c3c2)cc1 | inactive
47 | Cc1ccc2nc(SCC(=O)Nc3ccc4c(c3)OCCO4)[nH]c2c1 | inactive
48 | O=C(c1ccco1)N1CCCC(c2ccccc2)C1 (stereo not given) | inconclusive: 1.12 µM [activator, full curve, poor fit]

Row | Compound | Potency
49 | C=CCNC(=O)O/N=C/c1csc([N+](=O)[O-])c1 | inactive
50 | CCCC(=O)Nc1ccc(C2C(=O)c3ccccc3C2=O)cc1 | inconclusive: 35.5 µM [inhibitor, single point]
51 | O=C(NNc1ccc(C2CCCCC2)cc1)C(O)(c1ccccc1)c1cccs1 (stereo not given) | inconclusive: 20.6 µM [inhibitor, partial curve, poor fit]
52 | CCOc1cc(S(=O)(=O)NCc2ccccc2)ccc1F | inconclusive: 0.355 µM [activator, partial curve, poor fit]
53 | Cc1ccc(S(=O)(=O)NCCC2(C(C)C)CCOC(C)(C)C2)cc1 (stereo not given) | inconclusive: 35.5 µM [inhibitor, single point]
54 | O=C(CSc1nnnn1Cc1ccccc1)Nc1ccc2c(c1)OCO2 | inactive
55 | COc1ccc2c(Sc3ccccc3)c(C(=O)N3CCC(C)CC3)[nH]c2c1 | inactive
56 | Cc1ccc(-c2nn3c(C)nnc3s2)cc1N | inconclusive: 6.51 µM [activator, partial curve, poor fit]
57 | CCOc1ccc(C(=O)NC2CC3CCCC(C2)N3Cc2ccccc2)cc1 (stereo not given) | inconclusive: 28.2 µM [inhibitor, single point]
58 | Cc1ccc(CN2CC(C(=O)N3CCN(S(=O)(=O)c4ccc(C)cc4C)CC3)CC2=O)cc1 (stereo not given) | inconclusive: 12.6 µM [inhibitor, single point]
59 | CC(C)N1CC=C2C(C#N)=C(N)C(C#N)(C#N)C(c3ccccc3)C2C1 (stereo not given) | inactive
60 | COC(=O)c1c(C)[nH]c(O)c1C=Nc1ccc(C(C)C)cc1 | inactive
61 | CCc1c(C)sc(NC(=O)CN2CCN(C(=O)c3ccco3)CC2)c1C(=O)OC | inconclusive: 17.8 µM [inhibitor, partial curve, poor fit]
62 | COc1cccc(O[C@H]2C=C[C@@H](c3ccccc3)O[C@H]2CO)c1 | inactive
63 | COc1ccc(Br)cc1CN(C)C(=O)c1ccccc1SCC(=O)N1CCCC1 | inconclusive: 35.5 µM [inhibitor, single point]
64 | COc1ccc(OCC(=O)Nc2nc3cc4c(cc3s2)OCCO4)cc1 | inactive
65 | Cc1ccc(C(=O)O)cc1NC(=S)NC(=O)C(c1ccccc1)c1ccccc1 | inactive
66 | Fc1cccc(CSc2ncnc3c2ncn3C2CCCCO2)c1 (stereo not given) | inconclusive: 35.5 µM [inhibitor, single point]
67 | Nc1c(C(=O)NCc2ccccc2)sc2nc(N3CCOCC3)c3c(c12)CCCC3 | inconclusive: 29.1 µM [inhibitor, single point]
68 | O=C(NCCc1c[nH]c2ccccc12)c1ccc([N+](=O)[O-])cc1 | inconclusive: 20.6 µM [activator, single point]
69 | CC(=O)S[C@@H]1CC2=CC(=O)CC[C@@]2(C)[C@H]2CC[C@]3(C)[C@H](CC[C@@]34CCC(=O)O4)[C@H]12 | inactive
70 | COc1cc(-c2cc(C(=O)Nc3ccccc3N3CCOCC3)c3ccccc3n2)cc(OC)c1OC | inconclusive: 15.8 µM [inhibitor, single point]
